# Measurements from patent US20150245597A1, “HETEROZYGOUS MOUSE WITH AN INACTIVATED BRD1 ALLELE AND USES IN PSYCHIATRY” (CAPNOVA A/S, priority 2012, published 2015).
# For at least one compound, name, drawing or mass did not settle the structure.
# Test system: R mice
# Experiment: Psychotropic drug-induced locomotor hyperactivity test
# Assay type: in vivo, mouse
# Details: R males vs W mice, cocaine 30 mg/kg s.c.
# Experimental: Psychotropic drug-induced locomotor hyperactivity was established by injections with PCP (1.3, 2.5, and 5 mg/kg s.c.), amphetamine (1.3, 2.5, and 5 mg/kg s.c.) and cocaine (10, 20, and 30 mg/kg s.c.) as opposing saline vehicle s.c. and measured by recording both horizontal locomotor activity and rearing activity in an automated photo-cell equipped home-cage.
structure (smiles),measurement,value
"COC(=O)[C@H]1[C@@H](OC(=O)c2ccccc2)C[C@@H]2CC[C@H]1N2C [Cocaine, cocaine]",drug-induced locomotor hyperactivity (horizontal and rearing activity),clear sensitivity
